These are yes or no findings as the source states them, for the method shown. Sequences can lack the tags named with a protein.
T1: GST-RILP (full ORF) (human, UniProt Q96NA2 1-401)
T1 construct: also called GST-RILP resin; source: E. coli BL21(DE3), purified (glutathione beads, eluted with glutathione, dialysed); not shown: GST, N-terminal, kept
T1 sequence (looked up): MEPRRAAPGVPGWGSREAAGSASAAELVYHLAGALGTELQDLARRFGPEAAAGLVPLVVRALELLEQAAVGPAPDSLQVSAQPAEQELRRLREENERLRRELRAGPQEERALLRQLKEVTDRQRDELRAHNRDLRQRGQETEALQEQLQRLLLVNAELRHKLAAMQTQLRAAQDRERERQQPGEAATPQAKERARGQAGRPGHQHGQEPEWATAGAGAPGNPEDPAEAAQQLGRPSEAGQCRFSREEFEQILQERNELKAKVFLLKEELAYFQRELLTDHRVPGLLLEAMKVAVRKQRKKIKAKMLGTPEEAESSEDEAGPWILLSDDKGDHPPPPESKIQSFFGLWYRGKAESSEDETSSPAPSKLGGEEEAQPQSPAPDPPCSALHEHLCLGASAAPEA


How the values were obtained:
[1] = target: T1, GST-RILP (full ORF); test: pull-down; purified proteins: 0.2 nmol GST-RILP on glutathione beads; Rab34 proteins at 200 nM together with FLCN-DENN (1 uM; titrated 0 to 10 uM; 0.5 uM for wild-type Rab34); HEPES pH 7.5, 250 mM NaCl, 2 mM MgCl2, 1 mM GDP or GTPγS; 14 h at 4 °C; anti-His Western blot; both purified
[2] = target: T1, GST-RILP (full ORF); test: pull-down; purified proteins: 0.2 nmol GST-RILP on glutathione beads; Rab34 proteins at 200 nM or FLCN-DENN at 1 uM, each alone; HEPES pH 7.5, 250 mM NaCl, 2 mM MgCl2, 1 mM GDP or GTPγS where indicated; 14 h at 4 °C; anti-His Western blot; both purified
[3] = target: T1, GST-RILP (full ORF); test: condition: only Rab34 loaded with GDP (1 mM GDP); 200 nM; pull-down; purified proteins: 0.2 nmol GST-RILP on glutathione beads; Rab34 proteins at 200 nM together with FLCN-DENN (1 uM; titrated 0 to 10 uM; 0.5 uM for wild-type Rab34); HEPES pH 7.5, 250 mM NaCl, 2 mM MgCl2, 1 mM GDP or GTPγS; 14 h at 4 °C; anti-His Western blot; both purified
[4] = target: T1, GST-RILP (full ORF); test: condition: only Rab34 loaded with GDP (1 mM GDP); 200 nM; pull-down; purified proteins: 0.2 nmol GST-RILP on glutathione beads; Rab34 proteins at 200 nM or FLCN-DENN at 1 uM, each alone; HEPES pH 7.5, 250 mM NaCl, 2 mM MgCl2, 1 mM GDP or GTPγS where indicated; 14 h at 4 °C; anti-His Western blot; both purified

binding [1]	binding [2]	binding [3]	binding [4]	Binder
no binding (tested: 200 nM)	no binding (tested: 200 nM)	–	–	His-tagged Rab34 T66N (protein, UniProt Q64008 1-259) MNILAPVRRDRVLAELPQCLKKEAALHVRKDFHPRVTCACQEHRTGTVGFKISKVIVVGDLSVGKNCLINRFCKDTFDKNYKATIGVDFEMERFEVLGVPFSLQLWDTAGQERFKCIASTYYRGAQAIIIVFNLNDVASLEHTKQWLTDALKENDPSNVLLFLVGSKKDLSTPAQYSLMEKDALKVAQEIKAEYWAVSSLTGENVREFFFRVAALTFEANVLADVEKSGARHIADVVRINSDDKNLYLTASKKKATCCP
–	–	no binding	no binding	His-tagged Rab34 WT (natural protein, mouse, UniProt Q64008 1-259, looked up, Rab34, mouse, from an I.M.A.G.E. clone, in pET28 His-thrombin; loaded with GTPγS or GDP before the pull-down; also called wild-type Rab34; purified Rab34; source: E. coli, purified (His-trap FF, imidazole gradient)) MNILAPVRRDRVLAELPQCLKKEAALHVRKDFHPRVTCACQEHRTGTVGFKISKVIVVGDLSVGKTCLINRFCKDTFDKNYKATIGVDFEMERFEVLGVPFSLQLWDTAGQERFKCIASTYYRGAQAIIIVFNLNDVASLEHTKQWLTDALKENDPSNVLLFLVGSKKDLSTPAQYSLMEKDALKVAQEIKAEYWAVSSLTGENVREFFFRVAALTFEANVLADVEKSGARHIADVVRINSDDKNLYLTASKKKATCCP

Reference: publication PMC4893818, “Folliculin directs the formation of a Rab34–RILP complex to control the nutrient‐dependent dynamic distribution of lysosomes” (EMBO Reports, 2016)
